According to patent publication US12178838B2, “Synthetic neuromodulatory peptides” (Lactocore, Inc., priority 2019, dated 2024):
pIC50: −log10 of the molar value. Not every detail of the peptide structures is certain; ends, links or a residue may be inferred. Residues, ends and D or L forms follow the SMILES beside them.

Experiments:
[1] = test system: BALB/C mice; experiment: Bicuculline model: Porsolt swim test (two-day modification); assay type: in vivo
[2] = test system: Wistar rats; experiment: Learned helplessness model: Porsolt forced swimming test, one-day modification; assay type: in vivo
Method: Weigh was measured on an analytical balance, with an accuracy of 0.0001 g, the solution was prepared with a margin of 0.5 ml.
The tetracyclic antidepressant Maprotiline (Lyudiomil), a monoamine reuptake inhibitor, was used as a positive control. Animals received a daily intraperitoneal injection (i.p) of Maprotiline for ten days (M9651, Merck, 4.5 mg/kg, dissolved in saline: 200 μl per administration).
The state of “learned helplessness” according to modern concepts adequately reflects anxiety-depressive syndrome, reproducing the main signs of a person's endogenous depression, including the severity of effects of helplessness, hopelessness, and characteristic endocrine disorders. To develop LH, rats were subjected to uncontrolled unavoidable aversive stress (electro cutaneous irritation). […] Stimulation was performed automatically using a software randomizer.
“LH”—a group of animals subjected to stress, in which a depressive state of “learned helplessness” was developed. Pharmacotherapy was not performed in the LH group; the development of experimental depression was studied. […] “LH+Map.”—the comparison drug group. Maprotiline was injected intraperitoneally at a dosage of 4.5 mg/kg ten days daily to develop experimental depression.

[3] = test system: p-PKC (PKC gamma Thr514); experiment: Western blot of brain homogenates after CRS: p-PKC; assay type: in vivo, rats
Method: To simulate a depressive state, experimental animals were placed in the individual restrainers (“Open Science”, Russia) for six hours daily for 14 days (hereinafter “chronic restraint stress=CRS”). […] The administration of drugs was carried out daily, 30 minutes before placing rats in the restrainers.
At the end of the behavioral examination, the rats were decapitated, and their brains extracted for subsequent western blot analysis. A total of 51 samples of homogenized brain tissue from Sprague-Dawley rats (3-4 months old) were received from the Customer. 25 samples were homogenates of the cerebral cortex, 26 samples were homogenates of the hippocampus isolated from rat brain. The amount of homogenized tissue in each sample was less than 50 mg. […] They were Incubated in ice for 30 minutes. Then the samples were centrifuged at 12000 g, 15 minutes, +4° C.
All the steps necessary for the analysis of protein levels of BDNF, p-p70S6k (Thr421/Ser424), p-ERK (one and two), (Thr202/Tyr204), p-GSK3β (Ser9), p-PKC (PKCG gamma Thr514) and the GAPDH reference protein were provided in the studied samples using Western blotting.
The membrane was washed and incubated overnight at +4° C. with primary antibodies to the target protein in a dilution recommended by the manufacturer. After that, the membrane was washed again and incubated with secondary antibodies conjugated to horseradish peroxidase for 1 hour. The membrane was stained with a Thermo Scientific SuperSignal™ West Dura Extended Duration Substrate chemiluminescent substrate. Analysis of stained membranes was performed on a ChemiDoc detection and imaging system (Bio-Rad, USA).
The integral areas of the spots obtained were calculated as a quantitative assessment and then normalized to the amount of protein in the sample.

[4] = test system: Sprague-Dawley rats; experiment: Chronic restraint stress model: Open Field test; assay type: in vivo; conditions: CRS; FQSE 0.3 and 3 mg/kg intranasal daily
[5] = test system: zebrafish (Danio rerio); experiment: Open Field test in zebrafish; assay type: in vivo; conditions: ip
Method: The tested substances were injected into the zebrafish intraperitoneally (ip) using an insulin syringe (0.5 ml, 30 g) 10 minutes before the test. The saline solution (0.9% NaCl) was used as a solvent. Anesthesia and immobilization of the animals were achieved by placing them in water at a temperature of 10° C. Control group fish received intraperitoneal injections of an equivalent volume of solvent, also after going through a pre-cooling procedure.
A base, back, and side walls of the aquarium were made of matte black plastic; the front panel (shorter wall) was made of transparent Plexiglas. The setup for the Light/Dark preference test consisted of three main parts: a launch compartment, a light compartment made of white plastic, and a dark compartment made of black plastic. The bright lighting in these tests was provided by a lamp on a stand (LED lamp PL, 11 W, light flux≈600 Lm, about 500 Lx directly above the water surface), which was attached to the upper part of the aquarium.
The open field test was performed as described in Maximino et al., 2013. A video recording (background shooting) was started 20-30 seconds before the zebrafish were placed in the test aquarium. The experimental zebrafish was placed in an open field (“OF”) aquarium using a net. The recording was being conducted for five minutes. The test was carried out using EthoVision XT software package (Noldus). The software registered the distance covered by the animal, its speed, the number of visits to the three conventional zones of the aquarium: “bottom,” “center,” and […] (lower, middle, and upper thirds of the aquarium, respectively), the time spent in these zones, and the latency of a visit to the middle and to the surface of the aquarium.

[6] = molecular target: GABAA receptors of the cerebral cortex; experiment: Radioligand analysis of GABAA receptors with [3H] SR 95531; design: species or system rat; conditions: concentrations 10^−10-10^−4 M; read-out: IC50 with respect to [3H] SR 95531 binding
[7] = test system: BALB/C mice; experiment: Porsolt swim test (two-day modification) in mice; assay type: in vivo; conditions: ip
Method: After an adaptation period, the test substance was intraperitoneally injected into mice. Behavioral parameters were measured in 30 minutes after injection. The tests were administered as follows: day 1—the Open field test, day 3—the Elevated plus maze test, day 5—the Marble burying test, days 12-13—the Porsolt swim (two-day modification) test.
In the Porsolt Swim test, two tests were conducted in two days. The installation is a transparent cylinder, 30 cm in height, 10 cm in diameter, filled with water (temperature about 21-23° C.) to the mark of 25 cm height. On the first day each animal was placed into the cylinder for 10 minutes. Behavioral parameters were not registered. On the second day, the animals were placed into the cylinder for 5 minutes. The following parameters were measured: duration of active (vigorous movements of all limbs) and passive (weak movements of hind limbs) swimming, as well as immobility (immobilization) (Porsolt et al. (1977) Behavioral despair in mice: a primary screening test for antidepressants. Arch Int Pharmacodyn Ther. 229(2):327-36). After each test, the mice were placed into a heated cell to dry.

[8] = Maprotiline 4.5 mg/kg i/p, FQSE 0.5 mg/kg i/n
[9] = FQSE 10 mg/kg, ACZ-10 0.6 mg/kg

Compound: NC(=O)CC[C@H](NC(=O)[C@@H](N)Cc1ccccc1)C(=O)N[C@@H](CO)C(=O)N[C@@H](CCC(=O)O)C(=O)O [FQSE] (H-FQSE-OH)
- time spent active swimming ([1]; FQSE 20 mg/kg ip): 103.7 ± 16 s
- time spent active swimming ([1]; FQSE 20 mg/kg together with bicuculline 5 mg/kg ip): didn't show any changes
- immobilization and active swimming ([2]; FQSE 2.5 mg/kg i/n): but not 2.5 mg/kg
- active swimming time [2, 8]: increase in active swimming at the level of the trend
- time spent immobile [2, 8]: decrease of immobilization
- decrease in p-PKC in the cerebral cortex ([3]; FQSE 3 mg/kg): 51%
- levels of p-PKC (Thr 514) in the cerebral cortex ([3]; fluoxetine 5 mg/kg, FQSE 0.3 mg/kg): showed no changes
- normalization of p-PKC levels in the hippocampus ([3]; fluoxetine, FQSE): neither fluoxetine nor peptide FQSE (SEQ ID NO:10) contributed to the normalization
- motor activity [4]: had no effect
- latent period of coming up to the surface ([5]; FQSE 1 mg/kg): statistically increasing
- latent period of leaving the bottom [5, 9]: noticeable decrease
- time spent in the upper part of the aquarium [5, 9]: statistically significant increase
- increase of the time spent in the upper part ([5]; FQSE 10 mg/kg, fluvoxamine 5 mg/kg): 35%
- average distance covered / track length (locomotor activity) ([5]; diazepam 1.25, 5, 10, fluvoxamine 5, 10, ACZ-10 0.6, BCM-7 5, FQSE 1 and 10, DKTE 1, WDQV 10 mg/kg): no significant influence
- time spent at the surface of the aquarium ([5]; fluvoxamine 5 and 10 mg/kg, ACZ-10 0.6 mg/kg, FQSE 1 mg/kg): statistically increasing
- pIC50 [6]: < 4.00
- total time of immobility ([7]; FQSE 1 mg/kg): 142 ± 12.7 s
- duration of passive swimming ([7]; FQSE 5 mg/kg): 151 ± 12.5 s
- total time of immobility ([7]; FQSE 5 mg/kg): 115 ± 15.4 s
- duration of passive swimming ([7]; FQSE 10 mg/kg): 162 ± 12.1 s
- total time of immobility ([7]; FQSE 10 mg/kg): 145 ± 16.5 s
- duration of passive swimming ([7]; FQSE 20 mg/kg): 143 ± 14.6 s
- time of active swimming ([7]; FQSE 20 mg/kg): 27 ± 8.3 s
- total time of immobility ([7]; FQSE 20 mg/kg): 144 ± 10.2 s
